No constants are given. Whether binding was seen depends on the method and setting.
Tests used:
[1] = molecular target: cynomolgus monkey BSG2 on the cell surface (cynomolgus monkey); experiment: flow cytometry (FACS) on BAF3 cells expressing cynomolgus BSG2
[2] = molecular target: cynomolgus monkey BSG2 on the cell surface (cynomolgus monkey); experiment: cell-based ECL (MSD) binding on whole cells expressing cynomolgus BSG2
[3] = molecular target: cynomolgus monkey BSG2 on the cell surface (cynomolgus monkey); experiment: receptor binding assay, Eu-labeled antibody on cells expressing cynomolgus BSG2
[4] = molecular target: cynomolgus monkey BSG2 extracellular domain (cynomolgus monkey); experiment: condition: antigen concentrations ranging from 1.23-900 nM; SPR (Biacore), mAb captured by anti-mouse Fc, BSG2 ECD injected

- binding [1]: no binding
- binding [2]: no binding
- binding [3]: no binding
- binding [4]: no binding
B1: mouse anti-human BSG2 monoclonal antibody SZ66-2D2-2A1 (antibody, mouse IgG2a, kappa, V domains shown)
VH: QVQLQQPGAEIVRPGASVKLSCKASGYTFTDYWMNWVKLRPGQGLEWIGIIDPSDSYASYNQKFKGKATLTVDESSSTAYMQLSSLTSEDSAVYYCARKSYYGGNYYYAMDYWGQGTSVTVSS
VL: EIVLTQSPALMAASPGEKVTITCSVSSSINSINLHWYRQKSETSPKPWIYGTSNLASGVPVRFSGSGSGTSYSLTISSMEAEDAATYYCQQWSSYPLTFGAGTKLELKR
